# Laboratory results published in the supplement of paper PMC6411743.
# Sequences of proteins named here, by UniProt entry; tags and fusion partners are left off. A change or cut given only in a name is not applied to a line headed by its entry.
# UniProt Q9NV70: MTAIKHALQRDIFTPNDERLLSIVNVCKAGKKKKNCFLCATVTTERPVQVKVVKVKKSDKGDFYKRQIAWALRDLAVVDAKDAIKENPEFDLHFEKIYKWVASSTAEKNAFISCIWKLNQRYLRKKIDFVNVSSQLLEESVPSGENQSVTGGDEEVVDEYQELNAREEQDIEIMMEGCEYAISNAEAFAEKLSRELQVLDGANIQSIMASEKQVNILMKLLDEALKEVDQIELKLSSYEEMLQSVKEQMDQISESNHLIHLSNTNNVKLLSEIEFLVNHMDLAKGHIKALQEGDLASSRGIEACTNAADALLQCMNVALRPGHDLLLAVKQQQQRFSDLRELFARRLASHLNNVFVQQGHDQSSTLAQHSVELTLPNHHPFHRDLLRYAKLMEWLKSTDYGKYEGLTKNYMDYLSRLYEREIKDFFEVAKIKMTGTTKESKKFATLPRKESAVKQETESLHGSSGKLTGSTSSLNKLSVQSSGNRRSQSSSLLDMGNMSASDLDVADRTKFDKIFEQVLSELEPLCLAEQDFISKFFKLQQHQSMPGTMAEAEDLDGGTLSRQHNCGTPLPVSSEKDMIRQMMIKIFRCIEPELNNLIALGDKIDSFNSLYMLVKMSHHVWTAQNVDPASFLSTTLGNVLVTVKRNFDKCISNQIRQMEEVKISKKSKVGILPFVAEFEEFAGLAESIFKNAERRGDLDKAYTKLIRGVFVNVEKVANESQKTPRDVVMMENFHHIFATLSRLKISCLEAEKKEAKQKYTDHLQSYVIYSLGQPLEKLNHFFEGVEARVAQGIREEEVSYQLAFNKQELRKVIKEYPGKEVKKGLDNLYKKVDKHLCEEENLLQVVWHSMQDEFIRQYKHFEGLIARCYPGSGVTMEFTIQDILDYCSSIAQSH
# UniProt Q9NQE9: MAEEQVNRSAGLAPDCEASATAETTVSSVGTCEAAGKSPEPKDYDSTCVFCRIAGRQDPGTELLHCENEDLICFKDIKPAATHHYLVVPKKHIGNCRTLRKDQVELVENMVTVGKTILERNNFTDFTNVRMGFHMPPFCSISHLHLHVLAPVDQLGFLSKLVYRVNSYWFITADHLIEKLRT
# UniProt Q9P000, whole entry: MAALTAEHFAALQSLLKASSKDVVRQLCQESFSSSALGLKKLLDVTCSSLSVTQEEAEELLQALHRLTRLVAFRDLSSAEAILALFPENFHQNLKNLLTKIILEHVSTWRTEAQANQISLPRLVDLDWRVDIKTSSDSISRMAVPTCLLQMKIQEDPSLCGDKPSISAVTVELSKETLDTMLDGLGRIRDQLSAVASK
# UniProt Q9NQX3: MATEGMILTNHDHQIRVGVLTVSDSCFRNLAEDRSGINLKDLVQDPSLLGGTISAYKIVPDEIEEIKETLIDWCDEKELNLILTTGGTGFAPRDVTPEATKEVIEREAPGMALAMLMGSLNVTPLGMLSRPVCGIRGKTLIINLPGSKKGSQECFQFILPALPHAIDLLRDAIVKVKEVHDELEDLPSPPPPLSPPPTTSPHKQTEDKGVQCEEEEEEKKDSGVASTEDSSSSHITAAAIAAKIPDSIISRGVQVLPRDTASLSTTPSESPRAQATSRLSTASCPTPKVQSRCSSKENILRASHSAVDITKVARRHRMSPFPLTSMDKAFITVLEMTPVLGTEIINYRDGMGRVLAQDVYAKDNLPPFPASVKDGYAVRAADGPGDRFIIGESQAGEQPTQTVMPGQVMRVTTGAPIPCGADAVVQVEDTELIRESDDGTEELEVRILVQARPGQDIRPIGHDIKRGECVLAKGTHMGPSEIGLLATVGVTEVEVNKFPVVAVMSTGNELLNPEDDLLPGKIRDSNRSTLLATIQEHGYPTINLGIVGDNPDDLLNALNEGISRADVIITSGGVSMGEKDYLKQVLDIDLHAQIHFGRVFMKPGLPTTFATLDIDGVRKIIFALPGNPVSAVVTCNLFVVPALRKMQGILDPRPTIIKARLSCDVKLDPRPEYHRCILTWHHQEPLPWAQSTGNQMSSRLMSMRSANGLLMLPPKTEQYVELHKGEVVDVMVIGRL
# UniProt Q9P219: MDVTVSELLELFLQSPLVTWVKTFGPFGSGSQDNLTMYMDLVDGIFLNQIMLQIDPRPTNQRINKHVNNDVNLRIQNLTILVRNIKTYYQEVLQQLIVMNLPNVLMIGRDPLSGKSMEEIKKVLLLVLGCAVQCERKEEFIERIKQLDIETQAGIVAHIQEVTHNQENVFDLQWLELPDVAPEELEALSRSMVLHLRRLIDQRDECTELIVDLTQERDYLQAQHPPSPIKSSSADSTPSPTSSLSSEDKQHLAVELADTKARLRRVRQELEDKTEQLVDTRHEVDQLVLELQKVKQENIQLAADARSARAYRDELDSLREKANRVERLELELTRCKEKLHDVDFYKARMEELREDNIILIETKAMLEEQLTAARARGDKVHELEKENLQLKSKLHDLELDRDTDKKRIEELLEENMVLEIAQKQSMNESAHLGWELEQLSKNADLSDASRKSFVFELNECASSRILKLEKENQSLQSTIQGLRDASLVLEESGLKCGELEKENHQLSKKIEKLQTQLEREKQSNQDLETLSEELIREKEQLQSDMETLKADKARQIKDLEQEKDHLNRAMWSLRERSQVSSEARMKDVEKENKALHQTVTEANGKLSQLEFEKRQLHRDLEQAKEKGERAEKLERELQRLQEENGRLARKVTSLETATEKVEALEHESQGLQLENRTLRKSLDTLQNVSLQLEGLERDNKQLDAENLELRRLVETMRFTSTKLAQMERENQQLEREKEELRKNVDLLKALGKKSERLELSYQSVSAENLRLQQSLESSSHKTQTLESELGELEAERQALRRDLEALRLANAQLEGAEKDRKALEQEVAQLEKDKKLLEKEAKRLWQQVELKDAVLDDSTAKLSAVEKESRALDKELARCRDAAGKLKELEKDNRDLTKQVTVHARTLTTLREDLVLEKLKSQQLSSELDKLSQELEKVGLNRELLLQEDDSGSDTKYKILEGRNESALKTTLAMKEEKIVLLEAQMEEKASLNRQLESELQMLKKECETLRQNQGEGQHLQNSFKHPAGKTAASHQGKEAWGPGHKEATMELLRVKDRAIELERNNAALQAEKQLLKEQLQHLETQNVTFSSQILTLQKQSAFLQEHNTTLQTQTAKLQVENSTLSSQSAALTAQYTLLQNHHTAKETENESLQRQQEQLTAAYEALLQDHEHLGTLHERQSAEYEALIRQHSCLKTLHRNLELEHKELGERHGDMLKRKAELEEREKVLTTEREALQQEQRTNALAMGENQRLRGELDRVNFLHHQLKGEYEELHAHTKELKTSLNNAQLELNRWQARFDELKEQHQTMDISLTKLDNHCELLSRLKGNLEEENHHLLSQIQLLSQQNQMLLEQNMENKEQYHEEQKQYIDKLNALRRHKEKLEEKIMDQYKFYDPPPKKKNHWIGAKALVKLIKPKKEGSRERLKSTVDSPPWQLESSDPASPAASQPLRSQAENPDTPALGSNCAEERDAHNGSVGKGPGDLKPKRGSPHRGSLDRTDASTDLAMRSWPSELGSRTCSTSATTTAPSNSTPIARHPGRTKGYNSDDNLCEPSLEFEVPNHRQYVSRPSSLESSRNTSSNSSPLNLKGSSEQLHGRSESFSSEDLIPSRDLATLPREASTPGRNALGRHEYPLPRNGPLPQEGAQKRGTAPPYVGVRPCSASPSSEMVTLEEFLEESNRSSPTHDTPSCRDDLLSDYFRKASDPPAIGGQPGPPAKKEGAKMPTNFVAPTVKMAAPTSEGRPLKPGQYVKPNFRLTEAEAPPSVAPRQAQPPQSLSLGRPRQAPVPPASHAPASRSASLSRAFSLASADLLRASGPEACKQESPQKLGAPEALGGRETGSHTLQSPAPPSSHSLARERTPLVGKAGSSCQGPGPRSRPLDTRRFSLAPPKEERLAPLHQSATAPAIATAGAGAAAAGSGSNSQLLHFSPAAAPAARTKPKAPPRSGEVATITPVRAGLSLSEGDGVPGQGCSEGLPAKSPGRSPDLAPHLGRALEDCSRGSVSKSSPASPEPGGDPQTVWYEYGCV
# UniProt Q9P2B4: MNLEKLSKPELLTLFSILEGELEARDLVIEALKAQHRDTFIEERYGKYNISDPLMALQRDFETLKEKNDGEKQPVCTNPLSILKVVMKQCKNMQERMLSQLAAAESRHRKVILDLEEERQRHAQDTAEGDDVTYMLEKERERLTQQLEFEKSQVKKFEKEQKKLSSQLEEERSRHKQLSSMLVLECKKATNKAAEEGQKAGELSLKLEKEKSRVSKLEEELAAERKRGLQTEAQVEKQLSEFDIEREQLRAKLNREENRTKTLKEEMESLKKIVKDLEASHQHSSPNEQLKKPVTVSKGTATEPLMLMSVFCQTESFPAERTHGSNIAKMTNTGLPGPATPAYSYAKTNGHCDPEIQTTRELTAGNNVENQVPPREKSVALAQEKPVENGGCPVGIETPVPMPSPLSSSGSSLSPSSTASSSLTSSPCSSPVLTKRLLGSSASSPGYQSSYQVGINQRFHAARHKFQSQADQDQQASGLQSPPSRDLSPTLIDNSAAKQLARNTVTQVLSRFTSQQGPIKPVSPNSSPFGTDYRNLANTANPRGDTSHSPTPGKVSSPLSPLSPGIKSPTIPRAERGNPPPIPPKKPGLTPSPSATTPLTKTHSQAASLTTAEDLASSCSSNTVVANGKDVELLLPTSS
# UniProt Q9NX62: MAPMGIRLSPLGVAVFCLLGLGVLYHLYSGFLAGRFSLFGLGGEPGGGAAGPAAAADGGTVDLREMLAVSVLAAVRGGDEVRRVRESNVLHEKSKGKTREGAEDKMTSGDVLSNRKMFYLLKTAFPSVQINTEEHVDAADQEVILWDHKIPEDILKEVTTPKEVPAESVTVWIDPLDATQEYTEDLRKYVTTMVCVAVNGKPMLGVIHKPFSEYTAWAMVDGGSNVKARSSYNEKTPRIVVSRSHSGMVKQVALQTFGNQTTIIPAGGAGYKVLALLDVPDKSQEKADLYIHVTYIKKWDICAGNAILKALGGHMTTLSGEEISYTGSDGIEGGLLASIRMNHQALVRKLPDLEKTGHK
# UniProt Q9NRY5: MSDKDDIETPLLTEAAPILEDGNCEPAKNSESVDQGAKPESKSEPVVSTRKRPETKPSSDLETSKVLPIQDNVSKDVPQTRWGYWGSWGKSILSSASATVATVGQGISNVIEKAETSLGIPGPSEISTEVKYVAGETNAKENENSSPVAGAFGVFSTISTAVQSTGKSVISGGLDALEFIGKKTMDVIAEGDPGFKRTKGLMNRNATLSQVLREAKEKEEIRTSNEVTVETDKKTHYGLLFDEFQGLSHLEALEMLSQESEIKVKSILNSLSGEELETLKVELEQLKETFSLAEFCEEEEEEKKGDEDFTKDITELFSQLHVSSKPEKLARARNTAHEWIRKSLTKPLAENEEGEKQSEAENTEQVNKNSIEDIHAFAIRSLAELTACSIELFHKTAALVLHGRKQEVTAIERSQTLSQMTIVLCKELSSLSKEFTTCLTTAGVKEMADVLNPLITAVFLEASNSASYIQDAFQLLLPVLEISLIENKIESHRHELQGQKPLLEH
# UniProt Q9UBK8: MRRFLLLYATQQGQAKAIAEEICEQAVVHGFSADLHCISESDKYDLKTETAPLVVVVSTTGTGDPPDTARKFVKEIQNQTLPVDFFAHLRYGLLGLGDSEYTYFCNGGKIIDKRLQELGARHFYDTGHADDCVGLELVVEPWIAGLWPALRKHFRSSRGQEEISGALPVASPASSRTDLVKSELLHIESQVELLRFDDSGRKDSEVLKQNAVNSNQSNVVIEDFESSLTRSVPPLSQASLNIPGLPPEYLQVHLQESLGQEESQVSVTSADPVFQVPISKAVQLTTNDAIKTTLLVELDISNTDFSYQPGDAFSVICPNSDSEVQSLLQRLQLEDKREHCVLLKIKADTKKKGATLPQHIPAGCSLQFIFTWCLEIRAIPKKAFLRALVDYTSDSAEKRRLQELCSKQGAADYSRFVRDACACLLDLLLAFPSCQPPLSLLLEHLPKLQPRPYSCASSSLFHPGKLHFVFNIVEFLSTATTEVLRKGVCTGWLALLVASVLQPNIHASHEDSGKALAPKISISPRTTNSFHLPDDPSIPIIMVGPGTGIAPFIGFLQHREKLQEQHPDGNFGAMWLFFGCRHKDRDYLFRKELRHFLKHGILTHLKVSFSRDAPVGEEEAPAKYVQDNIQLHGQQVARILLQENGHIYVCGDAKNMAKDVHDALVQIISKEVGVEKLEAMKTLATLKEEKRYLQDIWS
# UniProt Q9UBQ7: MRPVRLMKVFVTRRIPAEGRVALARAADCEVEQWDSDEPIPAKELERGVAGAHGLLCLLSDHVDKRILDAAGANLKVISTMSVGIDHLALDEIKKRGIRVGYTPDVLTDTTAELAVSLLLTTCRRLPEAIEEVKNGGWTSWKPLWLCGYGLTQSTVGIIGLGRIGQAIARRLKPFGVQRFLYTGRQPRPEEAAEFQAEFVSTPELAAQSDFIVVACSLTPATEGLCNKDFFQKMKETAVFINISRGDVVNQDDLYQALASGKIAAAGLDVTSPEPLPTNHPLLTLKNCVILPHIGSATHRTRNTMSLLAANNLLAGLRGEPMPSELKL
# ± gives the standard deviation of the averaged measurements. Only a part is listed here, and it is no random draw. Most entries show no effect beyond the scatter of the controls.
# Compound: Nc1ncnc2c1ncn2[C@@H]1O[C@H](COP(=O)(O)OP(=O)(O)NP(=O)(O)O)[C@@H](O)[C@H]1O [adenylyl imidodiphosphate]
# Assay: NP40-soluble protein abundance relative to vehicle (solubility fold change) (ratio); higher = more soluble protein in presence of AMP-PNP
# Method in brief: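 In three independent experiments, Jurkat crude lysate made by Dounce homogenisation was treated for 10 min at room temperature and then 3 min at 37 °C with eight concentrations ranging from 0.1 to 10 mM. It was then solubilised with 0.8% NP40 plus benzonase for 60 min at 4 °C and ultracentrifuged. The supernatant was TMT-labelled for LC-MS/MS, and each value is the fold change against the detergent-processed vehicle for the same replicate, using vsn-normalised intensities.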
Target,NP40-soluble protein abundance (concentration: 0.1mM),NP40-soluble protein abundance (concentration: 0.5mM)
UniProt Q9NV70 and related entries,0.988 ± 0.036,0.973 ± 0.019
HINT3 (UniProt Q9NQE9),0.983 ± 0.019,0.989 ± 0.017
UniProt Q9NR28 and related entries,1.04 ± 0.016,1.03 ± 0.079
PDLIM7 (UniProt Q9NR12),0.978 ± 0.041,0.9729 ± 0.0066
UniProt Q9UBH6 and related entries,1.042 ± 0.0034,1.036 ± 0.0018
UniProt Q9P0K8 and related entries,0.9754 ± 0.0063,0.966 ± 0.03
COMMD9 (UniProt Q9P000),0.999 ± 0.02,1.02 ± 0.024
UniProt Q9NQX3 and related entries,0.9932 ± 0.0089,0.989 ± 0.035
CCDC88C (UniProt Q9P219),0.959 ± 0.032,0.938 ± 0.017
UniProt Q9NYU2 and related entries,1.02 ± 0.036,0.985 ± 0.072
CTTNBP2NL (UniProt Q9P2B4),1 ± 0.032,0.975 ± 0.058
UniProt Q9NXN4 and related entries,1.02 ± 0.033,0.979 ± 0.016
IMPAD1 (UniProt Q9NX62),0.98 ± 0.018,0.995 ± 0.033
GEMIN8 (UniProt Q9NWZ8),1 ± 0.029,0.987 ± 0.031
UniProt Q9NQC7 and related entries,0.992 ± 0.065,0.976 ± 0.031
UniProt Q9NZL4 and related entries,0.982 ± 0.02,0.95 ± 0.052
MRPL16 (UniProt Q9NX20),1 ± 0.04,0.998 ± 0.056
FAM114A2 (UniProt Q9NRY5),1.01 ± 0.057,1.01 ± 0.025
UniProt Q9UBK8 and related entries,0.97 ± 0.029,0.974 ± 0.066
CDKN2AIP (UniProt Q9NXV6),0.974 ± 0.02,1.01 ± 0.02
GRHPR (UniProt Q9UBQ7),1.02 ± 0.042,1 ± 0.049

# Pulled one by one from above:
Target,NP40-soluble protein abundance (concentration: 0.1mM),NP40-soluble protein abundance (concentration: 0.5mM)
UniProt Q9NQX3 and related entries,0.9932 ± 0.0089,0.989 ± 0.035
UniProt Q9NYU2 and related entries,1.02 ± 0.036,0.985 ± 0.072
